The list shows a part of the results. Values are raw readings; no control value is given beside them.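 In the initial screen, polymyxin B was used at a concentration that permeabilizes Salmonella's outer membrane but not its inner membrane. Maximum growth was set by DMSO wells with or without polymyxin B. Since plates varied, data were ranked per plate, and compounds giving the lowest OD600 advanced as hits.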
Tested on: Salmonella enterica serovar Typhimurium SL1344
Test: bacterial growth OD600 after 18 h with compound and polymyxin B; higher = more bacterial growth (less inhibition)
Settings: 50 µM, Mueller-Hinton broth

SMILES | bacterial growth OD600 (polymyxin B 0.75 µg/mL) | bacterial growth OD600 (polymyxin B 1 µg/mL)
CN(C)S(=O)(=O)N1CCc2onc(-c3ccccc3)c2C1 | 0.701 | –
OCC1(CCOc2ccccc2)CCCN(Cc2cc(F)ccc2-n2cccn2)C1 (stereo not given) | – | 0.826
CCC(C)CNC(=O)CCc1nnc(CCc2ccc(OC)cc2)o1 (stereo not given) | – | 1.04
Cc1cc2ncn(Cc3cc(C(=O)N(C)CC4CCCN4C)n[nH]3)c2cc1C (stereo not given) | – | 0.906
COc1ccc(-c2noc(CN3CCCC(C(=O)c4ccccc4)C3)n2)cc1 (stereo not given) | – | 0.865
COC(C(=O)Nc1ccnn1C1CCN(C(=O)C2CCCC2)CC1)c1ccccc1 (stereo not given) | – | 0.754
Cc1ccc(C(=O)N2CCC3(CCCN(Cc4cccc(F)c4F)C3)C2)s1 (stereo not given) | – | 0.008
COc1cccc(CN2CCN(C(=O)CCC3(Cc4ccccc4)CCC(=O)N3)CC2=O)c1 (stereo not given) | 0.781 | –
Cc1n[nH]c(C)c1CCN(C)C(=O)C1CCC(=O)N(CCCN2CCOCC2)C1 (stereo not given) | – | 1.01
O=C(NC1CC(=O)N(Cc2cccc(F)c2)C1)C1CCCCC1 (stereo not given) | – | 0.916
CCN1CCCC1CNC(=O)CCC1CCN(C(=O)c2ccnc(Cl)c2)CC1 (stereo not given) | 0.878 | –
COc1cc(C(=O)NCCc2ncccc2C)ccc1OC1CCN(C(C)=O)CC1 | – | 0.946
O=C(CC1CCCC1)Nc1cccc(N2CCC(NCC(c3ccccn3)N3CCOCC3)CC2)c1 (stereo not given) | 0.849 | –
COc1cccc(CN2CCCC(c3[nH]ncc3CC(C)C)C2)c1O (stereo not given) | 0.888 | –
CC(C)n1cc(C(=O)NCc2cccnc2N(C)C2CCCCC2)cn1 | 0.527 | –
Cc1cccc(C)c1Oc1ncccc1CNS(=O)(=O)c1cccnc1 | 0.786 | –
COc1ccc(CN2CCC(CO)(Cc3ccc(Cl)cc3)CC2)cc1C | 0.045 | –
CN(CCc1ccccc1)C1(C(=O)N2CCNC(=O)CC2)Cc2ccccc2C1 | 0.656 | –
Cn1c(C2CCCO2)nc2cc(NC(=O)CC3CCCC3)cc(C(=O)NCCc3ccco3)c21 (stereo not given) | 0.837 | –
COc1cc(C(=O)NCc2nc(C)cs2)ccc1OC1CCN(C(C)=O)CC1 | – | 0.886
CCOC(=O)N1CCN(Cc2nc(NCc3cccs3)c3ccccc3n2)CC1 | 0.776 | –
CCOc1ccc(CN2CCN(Cc3ccc4nsnc4c3)CC2CCO)cc1 (stereo not given) | – | 0.846
O=C1NCCN1CCNC(=O)C1(N2CCCCC2)Cc2ccccc2C1 | 0.843 | –
CCS(=O)(=O)c1ncc(CN(C)CC2CCCCO2)n1CCc1ccccc1 (stereo not given) | 0.771 | –
COCCN1C(=O)CC(CC(=O)N(C)C(C)c2ccc(OC)cc2)(c2ccccc2OC)C1=O (stereo not given) | 0.939 | –
CSc1ccccc1OCc1cc(C(=O)NC(C)Cn2cncn2)no1 (stereo not given) | – | 0.864
CCOc1ccc(CN2CCN(Cc3cccc(OCC)c3)CC2CCO)cc1 (stereo not given) | – | 0.873
CN(Cc1nc2ccccc2[nH]1)C(=O)Cn1nnnc1CN1CCc2ccccc2C1 | 0.816 | –
COc1cccc(CC2(CCC(=O)N3CCC(OCc4ccccc4)CC3)CCC(=O)N2)c1 (stereo not given) | 0.772 | –
CC(C)Cc1noc(-c2ccc(N3CCN(C)C(=O)[C@@H]3C)nc2)n1 | – | 0.95

In a second layout: two of the compounds above.

| SMILES | bacterial growth OD600 (polymyxin B 0.75 µg/mL) | bacterial growth OD600 (polymyxin B 1 µg/mL) |
| --- | --- | --- |
| OCC1(CCOc2ccccc2)CCCN(Cc2cc(F)ccc2-n2cccn2)C1 (stereo not given) | – | 0.826 |
| CCC(C)CNC(=O)CCc1nnc(CCc2ccc(OC)cc2)o1 (stereo not given) | – | 1.04 |

From the supplement of paper PMC12889115
